The supplement of paper PMC12282887
These are raw signals, not scaled to a control.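 For antimicrobials the highest concentration approximated the MIC. Most other compounds topped out at 500 µM, and known inducer-like compounds reached up to 1 mM. Inocula for deletion strains were tenfold smaller, and any well growing below 10% of the overall median was considered non-growing.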

Test system: Escherichia coli BW25113
Experiment: growth (OD600 area under curve, 8 h) (OD600 x h); higher = more growth
Protocol: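 E. coli BW25113 reporter strains (wild type, ΔmarA, ΔsoxS, Δrob, each carrying one of 8 lux reporter plasmids) were grown in 40 µl LB in 384-well plates at 37°C, 800 rpm, with each compound at 4 two-fold concentrations, in biological duplicates. Growth is the baseline-corrected OD600 area under the curve over 8 h (0-8 h WT, 1-9 h deletion strains).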

NCCc1c[nH]c2ccc(O)cc12 [Serotonine]
growth
Details	reporter plasmid: EVC	reporter plasmid: acrABp	reporter plasmid: marRABp	reporter plasmid: micFp	reporter plasmid: ompFp	reporter plasmid: robp	reporter plasmid: soxSp	reporter plasmid: tolCp
13.3 µg/ml, genetic background: wild type	3.325	3.08	3.39	3.11	3.33	3.47	3.05	3.013
13.3 µg/ml, genetic background: ΔmarA	3.03	4.34	3.871	3.42	3.75	4.25	2.86	2.95
13.3 µg/ml, genetic background: Δrob	3.03	2.95	3.42	3.03	2.95	2.89	2.76	2.82
13.3 µg/ml, genetic background: ΔsoxS	3.41	3.53	3.47	3.07	3.22	3.35	3.16	3.38
26.6 µg/ml, genetic background: wild type	3.22	3.13	3.41	3.01	3.31	3.44	2.88	3
26.6 µg/ml, genetic background: ΔmarA	2.814	4.21	3.67	3.28	3.63	4.05	2.64	2.81
26.6 µg/ml, genetic background: Δrob	2.9645	3.04	3.36	2.72	2.97	2.8	2.47	2.75
26.6 µg/ml, genetic background: ΔsoxS	3.28	3.27	3.5	2.98	3.16	3.39	3.23	3.31
53.2 µg/ml, genetic background: wild type	3.25	3.14	3.4	3.19	3.36	3.53	3.09	3.26
53.2 µg/ml, genetic background: ΔmarA	2.99	4.02	3.78	3.48	3.7	4.13	2.95	2.98
53.2 µg/ml, genetic background: Δrob	3	2.94	3.41	3.12	2.87	2.66	2.73	3.09
53.2 µg/ml, genetic background: ΔsoxS	3.33	3.41	3.48	3	3.2	3.26	3.22	3.43
106.3 µg/ml, genetic background: wild type	3.24	2.99	3.388	3.17	3.39	3.02	2.88	3.226
106.3 µg/ml, genetic background: ΔmarA	3.03	4.05	3.48	3.29	3.74	4.01	2.94	2.97
106.3 µg/ml, genetic background: Δrob	3.1	2.95	3.5	2.93	2.53	2.72	2.47	3.11
106.3 µg/ml, genetic background: ΔsoxS	3.3	3.41	3.19	3.01	3.06	3.24	3.18	3.33

NC[C@H]1O[C@H](O[C@H]2[C@H](O)[C@@H](O[C@H]3O[C@H](CO)[C@@H](O)[C@H](N)[C@H]3O)[C@H](N)C[C@@H]2N)[C@H](N)C[C@@H]1O [Tobramycin]
growth
Details	reporter plasmid: EVC	reporter plasmid: acrABp	reporter plasmid: marRABp	reporter plasmid: micFp	reporter plasmid: ompFp	reporter plasmid: robp	reporter plasmid: soxSp	reporter plasmid: tolCp
0.12 µg/ml, genetic background: wild type	2.91	2.71	2.83	2.68	2.92	2.82	2.64	2.66
0.12 µg/ml, genetic background: ΔmarA	2.91	4.22	3.32	3.18	3.32	3.58	2.76	2.87
0.12 µg/ml, genetic background: Δrob	2.89	3.02	3.07	2.67	2.61	2.85	2.66	2.63
0.12 µg/ml, genetic background: ΔsoxS	3.44	3.28	3.002	2.9	2.74	3.19	2.97	3.12
0.23 µg/ml, genetic background: wild type	2.65	2.861	2.99	2.71	3.12	2.921	2.56	2.72
0.23 µg/ml, genetic background: ΔmarA	2.85	3.94	3.38	3.17	3.27	3.45	2.78	2.84
0.23 µg/ml, genetic background: Δrob	2.49	2.96	3.1	2.76	2.69	2.76	2.52	2.68
0.23 µg/ml, genetic background: ΔsoxS	2.89	3.1	2.96	2.42	2.61	3.22	2.61	2.77
0.47 µg/ml, genetic background: wild type	2.73	2.27	2.43	2.453	2.69	2.81	2.32	2.45
0.47 µg/ml, genetic background: ΔmarA	2.8	3.88	3.14	3.05	3.28	3.55	2.69	2.73
0.47 µg/ml, genetic background: Δrob	2.79	2.51	2.92	2.74	2.45	2.44	2.25	2.56
0.47 µg/ml, genetic background: ΔsoxS	2.87	2.89	2.62	2.82	2.78	3.11	2.71	2.91
0.94 µg/ml, genetic background: wild type	0.771	6.47e-05	0.155	0.104	-0.0226	0.109	0.176	0.829
0.94 µg/ml, genetic background: ΔmarA	0.879	-0.0977	-0.00569	1.25	-0.0403	1.21	-0.0388	0.81
0.94 µg/ml, genetic background: Δrob	1.36	-0.132	0.0562	0.442	-0.0635	0.0244	0.205	1.32
0.94 µg/ml, genetic background: ΔsoxS	1.17	-0.0995	-0.0155	0.00513	-0.0469	0.0499	-0.00804	1.29
